PubChem BioAssay AID1259425 | University of Nebraska Medical Center – 2018

- Screen: 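Compare each knockdown with KSR1 silencing using changes in marker transcripts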 (primary screen)
- Cells: HCT116 human colon cancer cells
- Knock-down reagent: siRNA pool against human genes, 50 nM siRNA
- Measured: 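mRNA of six signature genes measured together by branched-DNA assay after 50 nM siRNA pool, blank removed, divided by geometric mean of two housekeeping genes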
- Reading the numbers: BNIP3L mRNA: higher = more BNIP3L transcript after knockdown; NDRG1 mRNA: higher = more NDRG1 transcript after knockdown; BNIP3 mRNA: higher = more BNIP3 transcript after knockdown; ALDOC mRNA: higher = more ALDOC transcript after knockdown; ACSL5 mRNA: higher = more ACSL5 transcript after knockdown
This is one part, drawn at random, of about 14,000 deposited reagents. Reagent sequences are not shown. Not given: the time to read-out.

no.	gene symbol	BNIP3L mRNA, set 1	NDRG1 mRNA, set 1	BNIP3 mRNA, set 1	ALDOC mRNA, set 1	ACSL5 mRNA, set 1
1	NAP1L4	0.118	1.2	0.302	0.0316	0.261
2	UBA7	0.0681	0.102	0.305	0.0193	0.156
3	ARG1	0.0774	0.111	0.206	0.019	0.116
4	PFDN6	0.171	0.167	0.358	0.0374	0.134
5	SCEL	0.0941	0.278	0.337	0.0338	0.166
6	BUD31	0.0934	0.119	0.234	0.0238	0.0594
7	SGCE	0.108	0.219	0.297	0.0327	0.284
8	GALNT10	0.155	1.17	0.574	0.101	0.151
9	DSG1	0.0809	0.0515	0.192	0.00824	0.2
10	NDUFB6	0.123	0.704	0.378	0.0564	0.157
11	PIN4	0.0789	0.141	0.263	0.0426	0.212
12	HLA-DPB1	0.0841	0.137	0.303	0.0138	0.17
13	KLRF1	0.081	0.0876	0.288	0.0197	0.197
14	POC1A	0.165	0.123	0.325	0.0313	0.131
15	SEC16A	0.145	0.281	0.225	0.027	0.263
16	MTREX	0.0639	0.365	0.324	0.0172	0.171

An excerpt from above, showing only “BNIP3 mRNA, set 1”:
GALNT10 = 0.574
DSG1 = 0.192
NDUFB6 = 0.378
PIN4 = 0.263
HLA-DPB1 = 0.303
KLRF1 = 0.288

The listing continues.
no.	gene symbol	BNIP3L mRNA, set 1	NDRG1 mRNA, set 1	BNIP3 mRNA, set 1	ALDOC mRNA, set 1	ACSL5 mRNA, set 1
17	LANCL2	0.116	0.135	0.326	0.0307	0.217
18	RNF144A	0.106	0.265	0.331	0.0271	0.157
19	GTF3A	0.12	0.141	0.498	0.0286	0.184
20	AIMP2	0.0608	0.168	0.201	0.00872	0.0936
21	FSCB	0.31	0.447	0.425	0.0923	0.464
22	RCAN1	0.0968	0.475	0.338	0.085	0.331
23	MST1	0.0739	0.125	0.234	0.0247	0.167
24	YAP1	0.136	0.0304	0.356	0.00603	0.229
25	ACKR1	0.0774	0.14	0.261	0.0437	0.115
26	RBFA	0.195	0.476	0.272	0.0521	0.282
27	OPCML	0.122	0.153	0.278	0.0132	0.102
28	RAD51C	0.0873	0.239	0.33	0.028	0.108
29	RETREG1	0.217	0.134	0.319	0.0276	0.199
30	POP5	0.149	0.209	0.288	0.0482	0.198
31	SMARCAL1	0.0883	0.173	0.279	0.023	0.145
32	ANAPC10	0.0682	0.141	0.269	0.0228	0.162
33	CSAG2	0.104	0.0567	0.305	0.0547	0.129
34	EPB41L3	0.0838	0.287	0.289	0.019	0.158
35	TNS2	0.0899	0.183	0.316	0.0291	0.209
36	AZU1	0.0424	0.6	0.398	0.00968	0.466
37	CNTNAP1	0.107	0.173	0.238	0.0149	0.0728
38	ID4	0.0616	0.078	0.169	0.0109	0.151
39	USP12	0.0533	0.112	0.199	0.0203	0.114
40	SLC19A1	0.103	0.107	0.287	0.0123	0.166
41	FKTN	0.0718	0.114	0.204	0.0218	0.167
42	TMEM100	0.13	0.145	0.334	0.0299	0.141
43	CIDEA	0.0876	0.292	0.247	0.0136	0.253
44	B4GALT7	0.0693	0.18	0.282	0.0142	0.266
45	SERPINH1	0.0918	0.296	0.295	0.0126	0.14
46	PHF10	0.12	0.44	0.388	0.0327	0.174
47	CRYBB2	0.15	0.234	0.353	0.00937	0.244
48	STOX2	0.0903	0.115	0.338	0.0311	0.148
49	HPS1	0.0629	0.18	0.313	0.00671	0.0897
50	PSIP1	0.0829	0.318	0.399	0.0171	0.233
